The list shows a part of the results.
How the values were obtained:
Assay in all cases: glycan array binding signal (z-score within array); higher = stronger binding
Settings in all cases: glycan notation: IUPAC condensed, linker removed
[1] = target: Fuc(a1-2)Gal
How it was run: (§1)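 The binding signal is a Z-score computed within each array and averaged over linkers. Arrays of the same protein sequence at different concentrations or buffers were also averaged together. Data originate from 3228 arrays in the Consortium for Functional Glycomics database, kept only where the protein sequence was available.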

[2] = target: Fuc(a1-2)Gal(b1-3)GalNAc
How it was run: as §1

[3] = target: Fuc(a1-2)Gal(b1-3)GalNAc(a1-3)[Fuc(a1-2)]Gal(b1-4)Glc
How it was run: as §1

[4] = target: Fuc(a1-2)Gal(b1-3)GalNAc(a1-3)[Fuc(a1-2)]Gal(b1-4)GlcNAc
How it was run: as §1

[5] = target: Fuc(a1-2)Gal(b1-3)GalNAc(b1-3)Gal
How it was run: as §1

[6] = target: Fuc(a1-2)Gal(b1-3)GalNAc(b1-3)Gal(a1-4)Gal(b1-4)Glc
How it was run: as §1

[7] = target: Fuc(a1-2)Gal(b1-3)GalNAc(b1-4)[Neu5Ac(a2-3)]Gal(b1-4)Glc
How it was run: as §1

[8] = target: Fuc(a1-2)Gal(b1-3)GlcNAc
How it was run: as §1

[9] = target: Fuc(a1-2)Gal(b1-3)GlcNAc(b1-2)Man(a1-3)[Fuc(a1-2)Gal(b1-3)GlcNAc(b1-2)Man(a1-6)]Man(b1-4)GlcNAc(b1-4)GlcNAc
How it was run: as §1

[10] = target: Fuc(a1-2)Gal(b1-3)GlcNAc(b1-2)Man(a1-3)[Fuc(a1-2)Gal(b1-3)GlcNAc(b1-2)Man(a1-6)]Man(b1-4)GlcNAc(b1-4)[Fuc(a1-6)]GlcNAc
How it was run: as §1

[11] = target: Fuc(a1-2)Gal(b1-3)GlcNAc(b1-3)Gal(b1-4)Glc
How it was run: as §1

[12] = target: Fuc(a1-2)Gal(b1-3)GlcNAc(b1-3)GalNAc
How it was run: as §1

[13] = target: Fuc(a1-2)Gal(b1-3)GlcNAc(b1-3)[Fuc(a1-2)Gal(b1-3)GlcNAc(b1-6)]GalNAc
How it was run: as §1

[14] = target: Fuc(a1-2)Gal(b1-3)GlcNAc(b1-3)[Gal(b1-4)GlcNAc(b1-6)]Gal(b1-4)Glc
How it was run: as §1

[15] = target: Fuc(a1-2)Gal(b1-3)GlcNAc(b1-3)[Neu5Ac(a2-6)Gal(b1-4)GlcNAc(b1-6)]Gal(b1-4)Glc
How it was run: as §1

[16] = target: Fuc(a1-2)Gal(b1-3)GlcNAc6S
How it was run: as §1

[17] = target: Fuc(a1-2)Gal(b1-3)[Fuc(a1-4)]GlcNAc
How it was run: as §1

[18] = target: Fuc(a1-2)Gal(b1-3)[Fuc(a1-4)]GlcNAc(b1-2)Man(a1-3)[Fuc(a1-2)Gal(b1-3)[Fuc(a1-4)]GlcNAc(b1-2)Man(a1-3)]Man(b1-4)GlcNAc(b1-4)GlcNAc
How it was run: as §1

[19] = target: Fuc(a1-2)Gal(b1-3)[Fuc(a1-4)]GlcNAc(b1-2)Man(a1-3)[Fuc(a1-2)Gal(b1-3)[Fuc(a1-4)]GlcNAc(b1-2)Man(a1-6)]Man(b1-4)GlcNAc(b1-4)[Fuc(a1-6)]GlcNAc(b1-4)[Fuc(a1-6)]GlcNAc
How it was run: as §1

[20] = target: Fuc(a1-2)Gal(b1-3)[Fuc(a1-4)]GlcNAc(b1-3)[Fuc(a1-3)[Gal(b1-4)]GlcNAc(b1-6)]Gal(b1-4)Glc
How it was run: as §1

[21] = target: Fuc(a1-2)Gal(b1-3)[Fuc(a1-4)]GlcNAc(b1-3)[Gal(b1-4)GlcNAc(b1-6)]Gal(b1-4)Glc
How it was run: as §1

[22] = target: Fuc(a1-2)Gal(b1-4)Glc
How it was run: as §1

[23] = target: Fuc(a1-2)Gal(b1-4)Glc6S
How it was run: as §1

[24] = target: Fuc(a1-2)Gal(b1-4)GlcNAc
How it was run: as §1

[25] = target: Fuc(a1-2)Gal(b1-4)GlcNAc(b1-2)Man
How it was run: as §1

[26] = target: Fuc(a1-2)Gal(b1-4)GlcNAc(b1-2)Man(a1-3)[Fuc(a1-2)Gal(b1-4)GlcNAc(b1-2)Man(a1-6)]Man(b1-4)GlcNAc(b1-4)GlcNAc
How it was run: as §1

[27] = target: Fuc(a1-2)Gal(b1-4)GlcNAc(b1-2)Man(a1-3)[Fuc(a1-2)Gal(b1-4)GlcNAc(b1-2)Man(a1-6)]Man(b1-4)GlcNAc(b1-4)[Fuc(a1-6)]GlcNAc
How it was run: as §1

[28] = target: Fuc(a1-2)Gal(b1-4)GlcNAc(b1-2)[Fuc(a1-2)Gal(b1-4)GlcNAc(b1-4)]Man(a1-3)[Fuc(a1-2)Gal(b1-4)GlcNAc(b1-2)Man(a1-6)]Man(b1-4)GlcNAc(b1-4)GlcNAc
How it was run: as §1

[29] = target: Fuc(a1-2)Gal(b1-4)GlcNAc(b1-3)Gal(b1-4)GlcNAc
How it was run: as §1

[30] = target: Fuc(a1-2)Gal(b1-4)GlcNAc(b1-3)Gal(b1-4)GlcNAc(b1-2)Man(a1-3)[Fuc(a1-2)Gal(b1-4)GlcNAc(b1-3)Gal(b1-4)GlcNAc(b1-2)Man(a1-6)]Man(b1-4)GlcNAc(b1-4)GlcNAc
How it was run: as §1

[31] = target: Fuc(a1-2)Gal(b1-4)GlcNAc(b1-3)Gal(b1-4)GlcNAc(b1-3)Gal(b1-4)GlcNAc
How it was run: as §1

[32] = target: Fuc(a1-2)Gal(b1-4)GlcNAc(b1-3)GalNAc
How it was run: as §1

[33] = target: Fuc(a1-2)Gal(b1-4)GlcNAc(b1-3)[Fuc(a1-2)Gal(b1-4)GlcNAc(b1-6)]GalNAc
How it was run: as §1

[34] = target: Fuc(a1-2)Gal(b1-4)GlcNAc(b1-3)[Fuc(a1-3)[Gal(b1-4)]GlcNAc(b1-6)]Gal(b1-4)Glc
How it was run: as §1

[35] = target: Fuc(a1-2)Gal(b1-4)GlcNAc(b1-6)GalNAc
How it was run: as §1

[36] = target: Fuc(a1-2)Gal(b1-4)GlcNAc6S
How it was run: as §1

[37] = target: Fuc(a1-2)Gal(b1-4)[Fuc(a1-3)]GlcNAc
How it was run: as §1

[38] = target: Fuc(a1-2)Gal(b1-4)[Fuc(a1-3)]GlcNAc(b1-2)Man(a1-3)[Fuc(a1-2)Gal(b1-4)[Fuc(a1-3)]GlcNAc(b1-2)Man(a1-6)]Man(b1-4)GlcNAc(b1-4)[Fuc(a1-6)]GlcNAc
How it was run: as §1

[39] = target: Fuc(a1-2)Gal(b1-4)[Fuc(a1-3)]GlcNAc(b1-2)[Fuc(a1-2)Gal(b1-4)[Fuc(a1-3)]GlcNAc(b1-4)]Man(a1-3)[Fuc(a1-2)Gal(b1-4)[Fuc(a1-3)]GlcNAc(b1-2)Man(a1-6)]Man(b1-4)GlcNAc(b1-4)GlcNAc
How it was run: as §1

[40] = target: Fuc(a1-2)Gal(b1-4)[Fuc(a1-3)]GlcNAc(b1-3)Gal(b1-4)[Fuc(a1-3)]GlcNAc
How it was run: as §1

[41] = target: Fuc(a1-2)Gal(b1-4)[Fuc(a1-3)]GlcNAc(b1-3)Gal(b1-4)[Fuc(a1-3)]GlcNAc(b1-3)Gal(b1-4)[Fuc(a1-3)]GlcNAc
How it was run: as §1

[42] = target: Fuc(a1-2)Gal(b1-4)[Fuc(a1-3)]GlcNAc(b1-3)GalNAc
How it was run: as §1

[43] = target: Fuc(a1-2)Gal(b1-4)[Fuc(a1-3)]GlcNAc(b1-3)[Neu5Ac(a2-6)Gal(b1-4)GlcNAc(b1-6)]Gal(b1-4)Glc
How it was run: as §1

[44] = target: Fuc(a1-2)Gal3S(b1-4)GlcNAc
How it was run: as §1

[45] = target: Fuc(a1-2)Gal6S(b1-3)GlcNAc
How it was run: as §1

B1: Gs78B-bfa-542-29-542 (Bacteroides fragilis) (protein)
chain: SEDINRNPLLPTKEDEKMDGVIYGAYLPNLEKSVIPIGTASESTEPVNRYQIGVNLAGDAWAGYMSPRDNKFNGSKNFTNYFMYENWVNYVYSFMVTDVYSPWMQIKRISQDEGTRNDEIYALAQIIKIAALHRTTDMFGPIPYSQVGKGSFKVAYDSQESVYRSFLKELEEAVQTLDDYSNKSKEVLPAFDIVYNGDVNKWMRFANSLMLRLAIRVRFADAGLAKEYAEKAVKHPAGLINSKELAAQMGKGAGLQMKNPLKVINEEYNDTRMGATIYSYLAGYNDARAAVYFVKNNGFKAVRCGIAKSGDAYNGFTRPNVHEDDPLYWMKASEVCFLKAEGALAGFDMGGSAGDFYNAGIRMSFSENGLDNSSAETYLKDSTRKPANYTDTSNGELSANAPSSITIRWENGATEEEKLERIITQKYLAIFPNGQEAWTEWRRTGYPRQIVVAENKTNSAVLIGNGYDLGGVRRLPYPRTEYEQNGENLHNAISQYLGGVDNAATKVWWDKKSK
- glycan array binding signal (z-score) [1]: -0.615
- glycan array binding signal (z-score) [2]: -0.638
- glycan array binding signal (z-score) [3]: 0.024
- glycan array binding signal (z-score) [4]: -0.825
- glycan array binding signal (z-score) [5]: -0.042
- glycan array binding signal (z-score) [6]: -0.777
- glycan array binding signal (z-score) [7]: -0.594
- glycan array binding signal (z-score) [8]: -0.804
- glycan array binding signal (z-score) [9]: 1.64
- glycan array binding signal (z-score) [10]: 2.47
- glycan array binding signal (z-score) [11]: -0.826
- glycan array binding signal (z-score) [12]: -0.318
- glycan array binding signal (z-score) [13]: 0.287
- glycan array binding signal (z-score) [14]: 0.745
- glycan array binding signal (z-score) [15]: -0.143
- glycan array binding signal (z-score) [16]: -0.658
- glycan array binding signal (z-score) [17]: -0.801
- glycan array binding signal (z-score) [18]: 0.574
- glycan array binding signal (z-score) [19]: -0.521
- glycan array binding signal (z-score) [20]: 0.149
- glycan array binding signal (z-score) [21]: -0.741
- glycan array binding signal (z-score) [22]: -0.615
- glycan array binding signal (z-score) [23]: -0.068
- glycan array binding signal (z-score) [24]: -0.806
- glycan array binding signal (z-score) [25]: -0.063
- glycan array binding signal (z-score) [26]: 0.583
- glycan array binding signal (z-score) [27]: -0.407
- glycan array binding signal (z-score) [28]: 0.289
- glycan array binding signal (z-score) [29]: -0.851
- glycan array binding signal (z-score) [30]: 0.637
- glycan array binding signal (z-score) [31]: -0.829
- glycan array binding signal (z-score) [32]: 0.729
- glycan array binding signal (z-score) [33]: 0.585
- glycan array binding signal (z-score) [34]: -0.817
- glycan array binding signal (z-score) [35]: 1.29
- glycan array binding signal (z-score) [36]: -0.827
- glycan array binding signal (z-score) [37]: -0.758
- glycan array binding signal (z-score) [38]: -0.529
- glycan array binding signal (z-score) [39]: 1.07
- glycan array binding signal (z-score) [40]: -0.816
- glycan array binding signal (z-score) [41]: -0.732
- glycan array binding signal (z-score) [42]: 1.23
- glycan array binding signal (z-score) [43]: -0.619
- glycan array binding signal (z-score) [44]: -0.608
- glycan array binding signal (z-score) [45]: -0.827

From the supplement of paper PMC8728848
